Reference: paper PMC11802874, “The hypolipidemic effect of MI-883, the combined CAR agonist/ PXR antagonist, in diet-induced hypercholesterolemia model” (Nature Communications, 2025)
These are yes or no findings as the source states them, for the method shown. Some entries that bind do so weakly or less than the wild type. Tags and fused reporters may be left off the sequences shown.

By UniProt entry, the sequences of proteins in these tests, tags left out. Residues count along the entry.
UniProt Q15788, residues 583-783: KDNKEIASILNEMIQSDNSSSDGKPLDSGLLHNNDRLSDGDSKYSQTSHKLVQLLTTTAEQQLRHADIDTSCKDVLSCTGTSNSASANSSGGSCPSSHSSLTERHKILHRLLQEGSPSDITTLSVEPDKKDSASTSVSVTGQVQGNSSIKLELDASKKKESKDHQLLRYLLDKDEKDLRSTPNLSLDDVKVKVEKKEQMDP

T1: GAL4-DBD/PXR(132-188) (human) (UniProt O75469)
T1 sequence: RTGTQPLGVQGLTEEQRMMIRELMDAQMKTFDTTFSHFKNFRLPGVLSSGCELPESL


Experiments:
[1] = biological target: T1, GAL4-DBD/PXR(132-188) (human); assay: two-hybrid; human PXR LBD assembly assay in HepG2 cells: GAL4-DBD/PXR(132-188) and VP16-AD/PXR(189-434) with pGL4-G5 reporter; cells treated with MI-883 for 24 h
[2] = biological target: GAL4-DBD/NCOA1-RID (residues 583–783) (UniProt Q15788); assay: two-hybrid; mammalian two-hybrid PXR-coactivator recruitment assay in HepG2 cells: GAL4-DBD/coactivator-RID and VP16-AD/PXR(108-434), pGL4-G5 reporter; cells treated with 10 µM rifampicin for 24 h
[3] = biological target: GAL4-DBD/NCOA1-RID (residues 583–783) (UniProt Q15788); assay: condition: only cells treated with MI-883 without rifampicin; two-hybrid; mammalian two-hybrid PXR-coactivator recruitment assay in HepG2 cells: GAL4-DBD/coactivator-RID and VP16-AD/PXR(108-434), pGL4-G5 reporter; cells treated with MI-883 alone (indicated concentrations) for 24 h
[4] = biological target: GAL4-DBD/NCOA1-RID (residues 583–783) (UniProt Q15788); assay: condition: only with MI-883 added to 10 µM rifampicin; two-hybrid; mammalian two-hybrid PXR-coactivator recruitment assay in HepG2 cells: GAL4-DBD/coactivator-RID and VP16-AD/PXR(108-434), pGL4-G5 reporter; cells treated with 10 µM rifampicin and MI-883 for 24 h

| binding [1] | binding [2] | binding [3] | binding [4] | Binder |
| --- | --- | --- | --- | --- |
| binds | – | – | – | VP16-AD/PXR(189-434) (domain or fragment, UniProt O75469 189-434) QAPSREEAAKWSQVRKDLCSLKVSLQLRGEDGSVWNYKPPADSGGKEIFSLLPHMADMSTYMFKGIISFAKVISYFRDLPIEDQISLLKGAAFELCQLRFNTVFNAETGTWECGRLSYCLEDTAGGFQQLLLEPMLKFHYMLKKLQLHEEEYVLMQAISLFSPDRPGVLQHRVVDQLQEQFAITLKSYIECNRPQPAHRFLFLKIMAMLTELRSINAQHTQRLLRIQDIHPFATPLMQELFGITGS |
| – | binds | no binding | no binding | VP16-AD/PXR(108-434) (domain or fragment, UniProt O75469 108-434) KKEMIMSDEAVEERRALIKRKKSERTGTQPLGVQGLTEEQRMMIRELMDAQMKTFDTTFSHFKNFRLPGVLSSGCELPESLQAPSREEAAKWSQVRKDLCSLKVSLQLRGEDGSVWNYKPPADSGGKEIFSLLPHMADMSTYMFKGIISFAKVISYFRDLPIEDQISLLKGAAFELCQLRFNTVFNAETGTWECGRLSYCLEDTAGGFQQLLLEPMLKFHYMLKKLQLHEEEYVLMQAISLFSPDRPGVLQHRVVDQLQEQFAITLKSYIECNRPQPAHRFLFLKIMAMLTELRSINAQHTQRLLRIQDIHPFATPLMQELFGITGS |
